In publication PMC10113200 one finds binding data, which are given here for 3 molecules.

Results are given in words; binding and its absence hold for the method and conditions named. For some assays here: In cells and extracts the contact can be indirect. For some assays here: Binding calls can cover weak binding; strength is not graded here. Sequences can lack the tags named with a protein.

For assay [1], the target named is VEL3 N-terminal GFP fusion (Arabidopsis thaliana). As to the kind of experiment: FRET or BRET; acceptor photobleaching FRET, eGFP donor and mCherry acceptor, transient expression in Nicotiana benthamiana leaves, imaged 3 days post-infiltration. On the technique in general: In BRET a luciferase serves as donor, and the signal depends on an acceptor being close.
For assay [2], the target named is VEL3 C-terminal GFP fusion (Arabidopsis thaliana). The description is as above.
For assay [3], the target named is VERNALIZATION5/VIN3-LIKE 3 (VEL3), yeast two-hybrid fusion (Arabidopsis thaliana). The assay can be described thus: two-hybrid; GAL4 BD (pDEST32, bait) and AD (pDEST22, prey) fusions in yeast AH109; growth on SD-WLHA, SD-WLH and SD-WLH with 1 to 10 mM 3AT.

B1: HDA19, fluorescent fusion for FRET (protein, UniProt O22446 1-501)
chain: MDTGGNSLASGPDGVKRKVCYFYDPEVGNYYYGQGHPMKPHRIRMTHALLAHYGLLQHMQVLKPFPARDRDLCRFHADDYVSFLRSITPETQQDQIRQLKRFNVGEDCPVFDGLYSFCQTYAGGSVGGSVKLNHGLCDIAINWAGGLHHAKKCEASGFCYVNDIVLAILELLKQHERVLYVDIDIHHGDGVEEAFYATDRVMTVSFHKFGDYFPGTGHIQDIGYGSGKYYSLNVPLDDGIDDESYHLLFKPIMGKVMEIFRPGAVVLQCGADSLSGDRLGCFNLSIKGHAECVKFMRSFNVPLLLLGGGGYTIRNVARCWCYETGVALGVEVEDKMPEHEYYEYFGPDYTLHVAPSNMENKNSRQMLEEIRNDLLHNLSKLQHAPSVPFQERPPDTETPEVDEDQEDGDKRWDPDSDMDVDDDRKPIPSRVKREAVEPDTKDKDGLKGIMERGKGCEVEVDESGSTKVTGVNPVGVEEASVKMEEEGTNKGGAEQAFPPKT
As to B1, the binding result in assay [1] and in assay [2] was “no binding” in each case.

B2: HD2C, fluorescent fusion for FRET (protein, UniProt Q9LZR5 1-294)
chain: MEFWGVEVKNGKPLHLDPGLDRLVHISQVALGESKNNVTEPIQLYVTVGSDKLLIGTLSHEKFPQLSTEIVLERNFALSHTWKNGSVFFSGYKVDASDPEPEDLIDDQLEAAGFKAAPKSAAKQVNFQLPNEDVKAKQDDDADGSEEDSSDDDDSENSGDEEEEKVTAESDSEEDDSSDDEEDDSSEEETPKKPEEPKKRSAEPNSSKNPASNKKAKFVTPQKTDSKKPHVHVATPHPSKQAGKNSGGGSTGETSKQQQTPKSAGAFGCKSCTRTFTSEMGLQSHTKAKHSAAA
For B2, the binding result in assay [1] and in assay [2] was “binds” throughout.

B3: HD2C, yeast two-hybrid fusion (protein, UniProt Q9LZR5 1-294)
chain: MEFWGVEVKNGKPLHLDPGLDRLVHISQVALGESKNNVTEPIQLYVTVGSDKLLIGTLSHEKFPQLSTEIVLERNFALSHTWKNGSVFFSGYKVDASDPEPEDLIDDQLEAAGFKAAPKSAAKQVNFQLPNEDVKAKQDDDADGSEEDSSDDDDSENSGDEEEEKVTAESDSEEDDSSDDEEDDSSEEETPKKPEEPKKRSAEPNSSKNPASNKKAKFVTPQKTDSKKPHVHVATPHPSKQAGKNSGGGSTGETSKQQQTPKSAGAFGCKSCTRTFTSEMGLQSHTKAKHSAAA
As for B3, the binding result in assay [3] is given as “no binding”.
